Structures are written as SMILES. Structures can show the parent of a compound that is named as a salt. This is one part of the list. Single values of this set are uncertain.

The test system of this assay is Peyronie's disease tunica albuginea primary fibroblasts. The assay can be described thus: cell viability (DRAQ5 nuclear stain) relative to TGF-beta1-only control; higher = more viable cells. As to conditions: 10 µM; TGF-beta1 10 ng/mL; 72 h.
`CC(=O)CC/C=C(\C)CC/C=C(\C)CC/C=C(\C)CCC=C(C)C` [Teprenone]: the cell viability was determined as 99.1%.

Turning to `C=C1/C(=C\C=C2/CCC[C@]3(C)[C@@H]([C@H](C)/C=C/[C@H](C)C(C)C)CC[C@@H]23)C[C@@H](O)C[C@@H]1O` [Doxercalciferol], the cell viability turned out to be 68.4%.

On to `CCCCN1CCCCC1C(=O)Nc1c(C)cccc1C` (stereo unspecified) [Bupivacaine HCl], for which the cell viability was determined as 94.1%.

On to `CO/N=C1\C[C@]2(C[C@@H]3C[C@@H](C/C=C(\C)C[C@@H](C)/C=C/C=C4\CO[C@@H]5[C@H](O)C(C)=C[C@@H](C(=O)O3)[C@]45O)O2)O[C@H](/C(C)=C/C(C)C)[C@H]1C` [Moxidectin], for which the cell viability was determined as 80.6%.

On to `CCN(CCO)CCCC(C)Nc1ccnc2cc(Cl)ccc12` (stereo unspecified) [Hydroxychloroquine Sulfate], for which the cell viability was determined as 86.9%.

Turning to `Cc1nc(Nc2ncc(C(=O)Nc3c(C)cccc3Cl)s2)cc(N2CCN(CCO)CC2)n1` [Dasatinib], the cell viability is 61%.

On to `Cc1nc(Nc2ncc(C(=O)Nc3c(C)cccc3Cl)s2)cc(N2CCN(CCO)CC2)n1` [Dasatinib hydrochloride], for which the cell viability is 41%.

In the case of `Cc1nc(Nc2ncc(C(=O)Nc3c(C)cccc3Cl)s2)cc(N2CCN(CCO)CC2)n1` [Dasatinib Monohydrate], the cell viability worked out at 49.6%.

With `Cc1nc(-c2ccc(OCC(C)C)c(C#N)c2)sc1C(=O)O` [Febuxostat], the cell viability was 65.7%.

With `C[C@@H](O)[C@H]1C(=O)N2C(C(=O)[O-])=C(SC3Cn4cnc[n+]4C3)[C@H](C)[C@H]12` (stereo partly specified) [Biapenem], the cell viability is 95%.

Take `CC(C(=O)O)c1ccc2c(c1)CC(=O)c1ccccc1S2` (stereo unspecified) [Zaltoprofen]: the cell viability came to 89.9%.

In the case of `CN(C)c1ccc(C(=C2C=CC(=[N+](C)C)C=C2)c2ccc(N(C)C)cc2)cc1` [Crystal Violet], the cell viability was determined as 50.8%.

Take `CC(=O)[C@H]1CC[C@H]2[C@@H]3CC=C4C[C@@H](O)CC[C@]4(C)[C@H]3CC[C@]12C` [Pregnenolone]: the cell viability amounted to 86.7%.

For the compound `COc1ccc(CC2c3cc(OC)c(OC)cc3CC[N+]2(C)CCC(=O)OCCCCCOC(=O)CC[N+]2(C)CCc3cc(OC)c(OC)cc3C2Cc2ccc(OC)c(OC)c2)cc1OC` (stereo unspecified) [Atracurium Besylate], the cell viability came to 80.9%.

As for `O=c1ccc2ccccc2o1` [Coumarin], the cell viability worked out at 96.2%.

For `CCOc1ccc(C[C@H]2NC(=O)CCSSC[C@@H](C(=O)N3CCC[C@H]3C(=O)N[C@@H](CCCN)C(=O)NCC(N)=O)NC(=O)[C@H](CC(N)=O)NC(=O)[C@H]([C@@H](C)O)NC(=O)[C@H]([C@@H](C)CC)NC2=O)cc1` [Atosiban Acetate], the cell viability was 96.1%.

Take `CN(C)CCCN1c2ccccc2Sc2ccc(Cl)cc21` [Chlorpromazine HCl]: the cell viability was determined as 86.6%.

In the case of `CCOc1ccccc1OC(c1ccccc1)C1CNCCO1` (stereo unspecified) [Reboxetine mesylate], the cell viability amounted to 93.4%.

Consider `O=c1[nH]cnc2c1ncn2[C@@H]1O[C@H](CO)[C@@H](O)[C@H]1O` [Inosine], for which the cell viability worked out at 87.4%.

`COc1cc([C@@H]2c3cc4c(cc3[C@@H](O[C@@H]3O[C@@H]5CO[C@@H](c6cccs6)O[C@H]5[C@H](O)[C@H]3O)[C@H]3COC(=O)[C@H]23)OCO4)cc(OC)c1O` [Teniposide]: the cell viability was found to be 73.6%.

Take `Nc1ccc(S(=O)(=O)Nc2ccccn2)cc1` [Sulfapyridine]: the cell viability was determined as 92.1%.

Turning to `Cc1[nH]c2ccccc2c1CCNCc1ccc(/C=C/C(=O)NO)cc1` [Panobinostat (LBH589)], the cell viability came out at 50.8%.

In the case of `COc1ccnc(C[S+]([O-])c2nc3cc(OC(F)F)ccc3[nH]2)c1OC` (stereo unspecified) [Pantoprazole], the cell viability is 92.7%.

For the compound `COc1ccnc(C[S+]([O-])c2nc3cc(OC(F)F)ccc3[nH]2)c1OC` (stereo unspecified) [Pantoprazole sodium], the cell viability is 91.3%.

Take `Nc1ccn([C@@H]2O[C@H](CO)[C@@H](O)[C@@H]2O)c(=O)n1` [Cytarabine hydrochloride]: the cell viability is 64.6%.

Take `Nc1ccn([C@@H]2O[C@H](CO)[C@@H](O)[C@@H]2O)c(=O)n1` [Cytarabine]: the cell viability was 70.7%.

For `O=c1[nH]c(=O)c2ccccc2o1` [Carsalam], the cell viability was determined as 85.3%.

For the compound `CN(C)C/C=C/C(=O)Nc1cc2c(Nc3ccc(F)c(Cl)c3)ncnc2cc1O[C@H]1CCOC1` [Afatinib (BIBW2992) Dimaleate], the cell viability turned out to be 50.3%.

As for `CN(C)C/C=C/C(=O)Nc1cc2c(Nc3ccc(F)c(Cl)c3)ncnc2cc1O[C@H]1CCOC1` [Afatinib (BIBW2992)], the cell viability was 79.8%.

As to `CC(C)(O)c1ccccc1CC[C@@H](SCC1(CC(=O)O)CC1)c1cccc(/C=C/c2ccc3ccc(Cl)cc3n2)c1` [Montelukast Sodium], the cell viability came out at 85.9%.

Consider `O=C1NC(=O)C(c2ccccc2)(c2ccccc2)N1` [Phenytoin], for which the cell viability stood at 96.7%.

Consider `CCN[C@@H]1C[C@H](N)[C@@H](O[C@H]2OC(CN)=CC[C@H]2N)[C@H](O)[C@H]1O[C@H]1OC[C@](C)(O)[C@H](NC)[C@H]1O` [Netilmicin Sulfate], for which the cell viability was 101%.

With `C#CCC(Cc1cnc2nc(N)nc(N)c2n1)c1ccc(C(=O)N[C@@H](CCC(=O)O)C(=O)O)cc1` (stereo partly specified) [Pralatrexate], the cell viability stood at 87.8%.

Take `O=C(C[S+]([O-])Cc1ccco1)NC/C=C\COc1cc(CN2CCCCC2)ccn1` (stereo unspecified) [Lafutidine]: the cell viability was 91.4%.

Take `COc1c(N2CCNC(C)C2)c(F)cc2c(=O)c(C(=O)O)cn(C3CC3)c12` (stereo unspecified) [Gatifloxacin]: the cell viability came to 82.4%.

With `O=C(c1ccccc1)c1ccc2n1CCC2C(=O)O` (stereo unspecified) [Ketorolac], the cell viability amounted to 102%.

In the case of `CN(C)CC(c1ccc(O)cc1)C1(O)CCCCC1` (stereo unspecified) [Desvenlafaxine Succinate], the cell viability was 96.7%.

Turning to `CN(C)CC(c1ccc(O)cc1)C1(O)CCCCC1` (stereo unspecified) [Desvenlafaxine], the cell viability was found to be 92%.

Take `NC(=O)[C@@H]1CCCN1C(=O)[C@H](Cc1c[nH]cn1)NC(=O)[C@@H]1CCC(=O)N1` [Protirelin]: the cell viability is 84.4%.

In the case of `CO/N=C(\C(=O)N[C@@H]1C(=O)N2C(C(=O)OC(C)OC(C)=O)=C(COC(N)=O)CS[C@H]12)c1ccco1` (stereo partly specified) [Cefuroxime axetil], the cell viability amounted to 85.9%.

Consider `CCc1c(Cl)c(O)c(Cl)c(O)c1C(=O)O[C@H]1[C@H](O)[C@H](OC)[C@H](OC/C2=C\C=C\C[C@H](O)/C(C)=C/[C@H](CC)[C@@H](O[C@@H]3OC(C)(C)[C@@H](OC(=O)C(C)C)[C@H](O)[C@@H]3O)/C(C)=C/C(C)=C/C[C@@H]([C@@H](C)O)OC2=O)O[C@@H]1C` [Fidaxomicin], for which the cell viability is 81.1%.

By cell viability is commonly meant a read-out of living cells in per cent, often relative to untreated cells.

These data come from the supplement of paper PMC9744312.
